Measurements reported in PubChem BioAssay AID504804 (Drosophila RNAi Screening Center, 2011)
The deposit covers about 19,000 reagents; shown is an unselected part of those that have a named target and a result. Over the whole deposit, 47 (0.25%) got an active call. 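Signals are raw, not normalised; exact z-scores behind calls not deposited; actives needed confirmation, so some wells reaching 2 SD are inactive.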

- Test: 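dsRNAs that improve Kc cell survival under doxorubicin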 (primary screen)
- Cells: Drosophila Kc cells
- Reagent: long dsRNA against Drosophila genes, 0.5 µg dsRNA per well
- Time to read-out: 96 h (48 h knock-down, then 48 h drug)
- Challenge: doxorubicin 5 µg/ml for 48 h, added 48 h after dsRNA
- Detection: 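Luminescent ATP counts per replicate, not normalised, reflecting viable cells after 48 h dsRNA knock-down followed by 48 h of 5 µg/ml doxorubicin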
- Scale: raw ATP luminescence: higher = more viable cells, protection from doxorubicin
- Active means: 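Active when both duplicate wells lie at least 2 SD above the plate mean and protection is confirmed by rescreening and independent dsRNAs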

gene	amplicon	raw ATP luminescence, replicate 1	raw ATP luminescence, replicate 2	Call
sif (GeneID 43892)	DRSC08759	1.52e5	1.54e5	inactive
sif (GeneID 43892)	DRSC11395	75177	82960	inactive
CG5013 (GeneID 41951)	DRSC15695	71670	83210	inactive
ppk28 (GeneID 32671)	DRSC19919	3.76e5	3.21e5	inactive
CG15425 (GeneID 33630)	DRSC00440	32527	23097	inactive
CG45263 (GeneID 50003)	DRSC12682	90923	64500	inactive
CG45263 (GeneID 50003)	DRSC14360	54113	59303	inactive
CG45263 (GeneID 50003)	DRSC14361	52750	73633	inactive
CG45263 (GeneID 50003)	DRSC14363	52390	45627	inactive
CG32816 (GeneID 318225)	DRSC17337	2.13e5	2.07e5	inactive
CG17994 (GeneID 35550)	DRSC04877	54637	69337	inactive
Cdk2 (GeneID 42453)	DRSC16921	35713	35870	inactive
Obp93a (GeneID 42506)	DRSC15220	46600	62810	inactive
Hsp27 (GeneID 39078)	DRSC11190	35977	35120	inactive
step (GeneID 35425)	DRSC03694	33837	33180	inactive
step (GeneID 35425)	DRSC03699	76787	58313	inactive
Rm62 (GeneID 40739)	DRSC12365	45513	17570	inactive
gukh (GeneID 53563)	DRSC14768	48360	44410	inactive
gukh (GeneID 53563)	DRSC15806	35220	47760	inactive
gukh (GeneID 53563)	DRSC15944	38993	37347	inactive
CG30283 (GeneID 37454)	DRSC04071	57473	51263	inactive
msi (GeneID 43087)	DRSC17003	35810	30070	inactive
Lcp4 (GeneID 35820)	DRSC07458	43987	65673	inactive
nau (GeneID 42799)	DRSC17011	55540	56400	inactive
CG42272 (GeneID 318020)	DRSC08766	2.03e5	1.80e5	inactive
Mal-A6 (GeneID 246565)	DRSC07233	25797	68730	inactive
CG13449 (GeneID 39695)	DRSC09996	41590	34427	inactive
MrgBP (GeneID 35880)	DRSC06417	48550	90940	inactive
Ih (GeneID 36589)	DRSC07445	64273	68067	inactive
CG14177 (retired record) (GeneID 39113)	DRSC10176	95193	90033	inactive
CG12679 (GeneID 33031)	DRSC20493	3.55e5	2.71e5	inactive
CG5282 (GeneID 40256)	DRSC11775	24647	26007	inactive
Fhos (GeneID 39004)	DRSC08943	1.72e5	2.09e5	inactive
Fhos (GeneID 39004)	DRSC10545	43400	34160	inactive
Fhos (GeneID 39004)	DRSC10546	40583	42997	inactive
Fhos (GeneID 39004)	DRSC10547	78667	79783	inactive

Reformatted: 3 of the entries above
CG14177 (retired record) (GeneID 39113) [DRSC10176] — raw ATP luminescence, replicate 1: 95193; raw ATP luminescence, replicate 2: 90033; Call: inactive
CG12679 (GeneID 33031) [DRSC20493] — raw ATP luminescence, replicate 1: 3.55e5; raw ATP luminescence, replicate 2: 2.71e5; Call: inactive
CG5282 (GeneID 40256) [DRSC11775] — raw ATP luminescence, replicate 1: 24647; raw ATP luminescence, replicate 2: 26007; Call: inactive
